PubChem BioAssay AID1259254, NCATS, 2017
Assay: 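Gene knock-downs that lead to re-replication, shown by excess G2 DNA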 (primary screen). Cells: human HCT116 colorectal cancer cells. Knock-down reagent: single siRNA against human genes. Time to read-out: 3 days. Detection: 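Nuclei stained with Hoechst and imaged; cell-cycle phase assigned by DNA content; G2 share scaled per plate, non-targeting siRNA 0%, GMNN siRNA 100%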. Reading the numbers: G2 robust z-score and G2 cells, % of GMNN control: higher = more G2 cells, more excess DNA replication; raw share of cells in G2: higher = larger share of cells with G2 DNA content. Active means: 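An siRNA counts as active if its G2 robust z-score lies at least 5 MADs above the screen median; here such calls match roughly 38% of GMNN control or more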.
The whole screen tested about 59,000 reagents; shown is an unselected part. About 1,550 of all reagents (2.6%) count as active. 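G2 share is only a proxy for re-replication; each gene was hit by three separate siRNAs, and active genes were retested.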 Raw values are not corrected between plates. A number with no mark means an inactive call. The numbers tell different reagents against one gene apart. Not given: the amount of reagent.

| G2 robust z-score | G2 cells, % of GMNN control | raw share of cells in G2 (%) | Target gene | reagent |
| --- | --- | --- | --- | --- |
| 0.4 | 5.78 | 5.76 | C5 (complement C5) | 1 |
| -0.509 | -0.613 | 4.56 | C5 (complement C5) | 2 |
| 7.53 (active) | 56 | 23.4 | C5 (complement C5) | 3 |
| 2.67 | 21.8 | 8.33 | GRAPL-AS1 (GRAPL antisense RNA 1) | 1 |
| -1.22 | -5.6 | 2.12 | GRAPL-AS1 (GRAPL antisense RNA 1) | 2 |
| 0.348 | 5.42 | 6.67 | GRAPL-AS1 (GRAPL antisense RNA 1) | 3 |
| -1.13 | -5 | 1.94 | CLUL1 (clusterin like 1) | 1 |
| 2.02 | 17.2 | 11.1 | CLUL1 (clusterin like 1) | 2 |
| -1.3 | -6.17 | 1.31 | CLUL1 (clusterin like 1) | 3 |
| -0.733 | -2.19 | 3.02 | PNPLA7 (patatin like domain 7, lysophospholipase) | 1 |
| -0.616 | -1.37 | 2.81 | PNPLA7 (patatin like domain 7, lysophospholipase) | 2 |
| -0.22 | 1.42 | 5.24 | PNPLA7 (patatin like domain 7, lysophospholipase) | 3 |
| -0.536 | -0.803 | 4.62 | UBE2J2 (ubiquitin conjugating enzyme E2 J2) | 1 |
| -0.195 | 1.59 | 5.08 | UBE2J2 (ubiquitin conjugating enzyme E2 J2) | 2 |
| 0.409 | 5.85 | 8.39 | UBE2J2 (ubiquitin conjugating enzyme E2 J2) | 3 |
| 0.242 | 4.67 | 6.31 | SYNJ1 (synaptojanin 1) | 1 |
| -0.28 | 0.996 | 4.6 | SYNJ1 (synaptojanin 1) | 2 |
| -1.05 | -4.42 | 2.17 | SYNJ1 (synaptojanin 1) | 3 |
| 0.853 | 8.97 | 7.79 | SZRD1 (SUZ RNA binding domain containing 1) | 1 |
| -0.405 | 0.116 | 3.99 | SZRD1 (SUZ RNA binding domain containing 1) | 2 |
| 0.348 | 5.42 | 5.19 | SZRD1 (SUZ RNA binding domain containing 1) | 3 |
| 0.278 | 4.92 | 6.61 | TRIM7 (tripartite motif containing 7) | 1 |
| 0.953 | 9.67 | 9.46 | TRIM7 (tripartite motif containing 7) | 2 |
| -0.891 | -3.3 | 3 | TRIM7 (tripartite motif containing 7) | 3 |
| 4.63 | 35.6 | 17.6 | NR1H4 (nuclear receptor subfamily 1 group H member 4) | 1 |
| 0.661 | 7.62 | 6.48 | NR1H4 (nuclear receptor subfamily 1 group H member 4) | 2 |
| 0.161 | 4.1 | 5.95 | NR1H4 (nuclear receptor subfamily 1 group H member 4) | 3 |
| -0.298 | 0.871 | 4.57 | GINS2 (GINS complex subunit 2) | 1 |
| 1.16 | 11.1 | 11 | GINS2 (GINS complex subunit 2) | 2 |
| 2.55 | 20.9 | 11.8 | GINS2 (GINS complex subunit 2) | 3 |
| 0.832 | 8.82 | 6.76 | PEBP4 (phosphatidylethanolamine binding protein 4) | 1 |
| -0.25 | 1.21 | 3.36 | PEBP4 (phosphatidylethanolamine binding protein 4) | 2 |
| -0.994 | -4.03 | 1.49 | PEBP4 (phosphatidylethanolamine binding protein 4) | 3 |
| 0.243 | 4.68 | 5.59 | BCL11A (BCL11 transcription factor A) | 1 |
| 2.57 | 21 | 12 | BCL11A (BCL11 transcription factor A) | 2 |
| -0.759 | -2.37 | 4.88 | BCL11A (BCL11 transcription factor A) | 3 |
| -0.0865 | 2.36 | 5.91 | ALDH2 (aldehyde dehydrogenase 2 family member) | 1 |
| -0.775 | -2.49 | 3.06 | ALDH2 (aldehyde dehydrogenase 2 family member) | 2 |
| 0.272 | 4.88 | 6.38 | ALDH2 (aldehyde dehydrogenase 2 family member) | 3 |
| -0.25 | 1.21 | 4.82 | CDC42SE1 (CDC42 small effector 1) | 1 |
| -0.122 | 2.11 | 5.47 | CDC42SE1 (CDC42 small effector 1) | 2 |
| -0.453 | -0.222 | 2.96 | CDC42SE1 (CDC42 small effector 1) | 3 |
| -1.3 | -6.15 | 2.81 | IMPG1 (interphotoreceptor matrix proteoglycan 1) | 1 |
| -0.114 | 2.17 | 5 | IMPG1 (interphotoreceptor matrix proteoglycan 1) | 2 |
| -1.74 | -9.28 | 2.15 | IMPG1 (interphotoreceptor matrix proteoglycan 1) | 3 |
| 4.97 | 37.9 | 17 | MPC1L | 1 |
| 2.48 | 20.4 | 12.2 | MPC1L | 2 |
| -1.15 | -5.09 | 2.14 | MPC1L | 3 |
